Structures can show the parent of a compound that is named as a salt. The list shows a part of the results. Hit calls seldom repeat between salt and free forms of one compound.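 In K562 cells expressing nanoluciferase-fused kinases, luminescence was recorded at 4 h intervals between 2 and 18 h, normalized as percent of control with DMSO at 100% and a positive control at 0%. A significant (2 sigma) signal drop marks a time point as decreased. The authors' rule for a hit is not shown and takes in more than the number of time points.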
Tests used:
Details in all cases: K562; 2-18 h
RET = RET (UniProt P07949); assay: kinase-Nluc reporter destabilization hit call (1 = scored as downregulated) (binary); higher = compound decreases kinase abundance
[1] = molecular target: RET_M918T (clone: RET_mut) (UniProt P07949); assay: as above
RIOK1 = RIOK1 (UniProt Q9BRS2); assay: as above
RIPK1 = RIPK1 (UniProt Q13546); assay: as above
RIPK2 = RIPK2 (UniProt O43353); assay: as above
ROR2 = ROR2 (UniProt Q01974); assay: as above
RPS6KA1 = RPS6KA1 (UniProt Q15418); assay: as above
SPHK1 = SPHK1 (UniProt Q9NYA1); assay: as above
SRC = SRC (UniProt P12931); assay: as above
STK24 = STK24 (UniProt Q9Y6E0); assay: as above
STK38 = STK38 (UniProt Q15208); assay: as above
SYK = SYK (UniProt P43405); assay: as above
TEC = TEC (UniProt P42680); assay: as above
TYK2 = TYK2 (UniProt P29597); assay: as above
ULK3 = ULK3 (UniProt Q6PHR2); assay: as above
YES1 = YES1 (UniProt P07947); assay: as above
ZAK = ZAK (UniProt Q9NYL2); assay: as above
ZAP70 = ZAP70 (UniProt P43403); assay: as above
ABL1 = ABL1 (UniProt P00519); assay: number of time points (of 5) at which kinase-Nluc abundance scored as decreased, DMSO-normalised (count); higher = more persistent destabilization
AKT1 = AKT1 (UniProt P31749); assay: as above

Protein sequences, listed by entry. Tags and fused reporters are not part of them. Lines headed by an entry give the natural chain unless they say otherwise; changes in a name come on top.
UniProt Q9BRS2: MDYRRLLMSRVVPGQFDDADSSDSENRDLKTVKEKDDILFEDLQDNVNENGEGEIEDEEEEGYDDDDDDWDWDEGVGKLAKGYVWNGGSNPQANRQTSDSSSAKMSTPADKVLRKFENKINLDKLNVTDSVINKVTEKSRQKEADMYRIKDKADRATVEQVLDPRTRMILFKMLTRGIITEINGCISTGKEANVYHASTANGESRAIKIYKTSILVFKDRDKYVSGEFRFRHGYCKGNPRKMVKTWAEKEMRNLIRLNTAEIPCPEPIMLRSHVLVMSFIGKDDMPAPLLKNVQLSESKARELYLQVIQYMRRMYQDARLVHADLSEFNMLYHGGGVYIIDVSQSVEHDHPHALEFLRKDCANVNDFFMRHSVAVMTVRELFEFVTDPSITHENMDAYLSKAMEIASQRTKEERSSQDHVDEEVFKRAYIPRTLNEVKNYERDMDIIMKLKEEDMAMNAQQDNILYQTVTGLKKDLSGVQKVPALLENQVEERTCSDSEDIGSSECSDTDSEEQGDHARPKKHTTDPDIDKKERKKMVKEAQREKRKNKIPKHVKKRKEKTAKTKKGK
UniProt Q01974, whole entry: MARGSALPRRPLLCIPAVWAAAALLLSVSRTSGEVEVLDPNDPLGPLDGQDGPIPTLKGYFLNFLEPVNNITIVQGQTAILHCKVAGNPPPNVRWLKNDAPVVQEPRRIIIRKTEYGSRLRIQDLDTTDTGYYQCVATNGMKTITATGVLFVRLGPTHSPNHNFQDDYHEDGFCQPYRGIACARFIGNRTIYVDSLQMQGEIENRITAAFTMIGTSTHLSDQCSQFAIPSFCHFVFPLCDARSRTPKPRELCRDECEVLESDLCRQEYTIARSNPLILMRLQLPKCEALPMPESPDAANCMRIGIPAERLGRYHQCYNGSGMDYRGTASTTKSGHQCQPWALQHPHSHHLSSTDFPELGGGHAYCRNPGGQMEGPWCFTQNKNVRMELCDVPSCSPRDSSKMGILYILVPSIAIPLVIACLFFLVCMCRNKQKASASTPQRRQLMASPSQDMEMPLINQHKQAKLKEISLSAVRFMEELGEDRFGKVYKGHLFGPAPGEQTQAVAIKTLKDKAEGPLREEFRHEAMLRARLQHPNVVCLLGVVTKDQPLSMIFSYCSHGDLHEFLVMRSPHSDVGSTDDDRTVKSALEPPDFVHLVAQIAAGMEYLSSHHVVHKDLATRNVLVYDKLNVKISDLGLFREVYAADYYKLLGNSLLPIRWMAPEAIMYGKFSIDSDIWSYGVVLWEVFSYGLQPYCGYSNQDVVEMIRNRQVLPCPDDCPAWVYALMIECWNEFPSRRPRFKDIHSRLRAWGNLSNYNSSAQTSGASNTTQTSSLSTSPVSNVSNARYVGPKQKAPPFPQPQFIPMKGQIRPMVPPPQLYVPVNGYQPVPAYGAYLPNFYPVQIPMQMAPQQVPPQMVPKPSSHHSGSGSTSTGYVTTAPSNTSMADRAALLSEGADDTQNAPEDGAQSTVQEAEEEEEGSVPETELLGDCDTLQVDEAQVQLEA
UniProt Q15418, whole entry: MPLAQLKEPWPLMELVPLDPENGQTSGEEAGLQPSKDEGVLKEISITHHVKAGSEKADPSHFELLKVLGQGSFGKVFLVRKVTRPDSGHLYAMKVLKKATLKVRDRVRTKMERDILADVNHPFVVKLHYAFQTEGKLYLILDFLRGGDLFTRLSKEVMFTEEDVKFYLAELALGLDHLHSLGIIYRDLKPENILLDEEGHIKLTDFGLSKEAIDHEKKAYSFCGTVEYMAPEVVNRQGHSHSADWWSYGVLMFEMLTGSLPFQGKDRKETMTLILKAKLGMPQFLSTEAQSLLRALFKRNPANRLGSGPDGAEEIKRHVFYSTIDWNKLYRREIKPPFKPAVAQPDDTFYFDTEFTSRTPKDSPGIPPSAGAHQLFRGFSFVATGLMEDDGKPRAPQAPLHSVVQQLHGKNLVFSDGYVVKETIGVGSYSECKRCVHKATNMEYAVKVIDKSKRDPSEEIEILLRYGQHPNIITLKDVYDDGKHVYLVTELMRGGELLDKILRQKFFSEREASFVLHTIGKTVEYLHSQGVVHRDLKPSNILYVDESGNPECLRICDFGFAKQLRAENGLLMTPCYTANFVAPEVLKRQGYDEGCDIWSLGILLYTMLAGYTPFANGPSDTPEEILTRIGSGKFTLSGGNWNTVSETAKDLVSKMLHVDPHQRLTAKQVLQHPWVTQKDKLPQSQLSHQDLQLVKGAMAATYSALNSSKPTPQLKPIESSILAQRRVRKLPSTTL
UniProt Q9NYA1, whole entry: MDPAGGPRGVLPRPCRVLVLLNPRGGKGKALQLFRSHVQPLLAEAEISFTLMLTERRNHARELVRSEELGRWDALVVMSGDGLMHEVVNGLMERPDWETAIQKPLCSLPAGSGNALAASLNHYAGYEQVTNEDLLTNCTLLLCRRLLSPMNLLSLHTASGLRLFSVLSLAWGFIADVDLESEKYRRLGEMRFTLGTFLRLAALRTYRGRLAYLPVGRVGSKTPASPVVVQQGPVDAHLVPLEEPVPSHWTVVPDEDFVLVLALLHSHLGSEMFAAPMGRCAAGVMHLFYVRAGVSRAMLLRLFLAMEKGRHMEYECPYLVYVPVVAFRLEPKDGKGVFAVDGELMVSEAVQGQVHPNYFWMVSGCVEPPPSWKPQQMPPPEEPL
UniProt Q15208: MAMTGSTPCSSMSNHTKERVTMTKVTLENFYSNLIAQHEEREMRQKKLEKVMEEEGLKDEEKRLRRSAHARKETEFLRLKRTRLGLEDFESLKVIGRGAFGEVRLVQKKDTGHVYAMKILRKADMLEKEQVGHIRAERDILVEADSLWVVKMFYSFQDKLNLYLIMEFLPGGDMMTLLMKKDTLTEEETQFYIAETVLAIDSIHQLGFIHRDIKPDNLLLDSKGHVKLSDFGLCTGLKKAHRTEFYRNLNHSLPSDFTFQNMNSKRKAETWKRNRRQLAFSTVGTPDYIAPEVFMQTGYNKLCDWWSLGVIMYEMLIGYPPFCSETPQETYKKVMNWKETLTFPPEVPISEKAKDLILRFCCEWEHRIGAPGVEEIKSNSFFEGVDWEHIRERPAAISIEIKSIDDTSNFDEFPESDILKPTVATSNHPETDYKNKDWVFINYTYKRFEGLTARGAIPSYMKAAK
UniProt P42680: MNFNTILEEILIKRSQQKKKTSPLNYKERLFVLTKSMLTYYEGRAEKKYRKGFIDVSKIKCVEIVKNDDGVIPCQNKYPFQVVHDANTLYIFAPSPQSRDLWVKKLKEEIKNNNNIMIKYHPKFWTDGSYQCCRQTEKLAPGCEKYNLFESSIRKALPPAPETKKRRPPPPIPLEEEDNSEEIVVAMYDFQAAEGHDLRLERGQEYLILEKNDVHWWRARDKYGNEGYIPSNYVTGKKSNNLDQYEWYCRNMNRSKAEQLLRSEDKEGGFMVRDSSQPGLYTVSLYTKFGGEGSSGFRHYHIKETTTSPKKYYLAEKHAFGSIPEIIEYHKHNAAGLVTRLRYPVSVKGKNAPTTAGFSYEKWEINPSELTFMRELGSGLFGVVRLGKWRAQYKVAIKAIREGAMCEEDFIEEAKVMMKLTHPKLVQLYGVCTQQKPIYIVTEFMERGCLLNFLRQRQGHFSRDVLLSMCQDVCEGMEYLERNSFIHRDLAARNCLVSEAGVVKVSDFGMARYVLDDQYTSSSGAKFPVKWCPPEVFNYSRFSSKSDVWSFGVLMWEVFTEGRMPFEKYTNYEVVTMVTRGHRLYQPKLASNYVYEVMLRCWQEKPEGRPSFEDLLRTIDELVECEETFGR
UniProt P29597: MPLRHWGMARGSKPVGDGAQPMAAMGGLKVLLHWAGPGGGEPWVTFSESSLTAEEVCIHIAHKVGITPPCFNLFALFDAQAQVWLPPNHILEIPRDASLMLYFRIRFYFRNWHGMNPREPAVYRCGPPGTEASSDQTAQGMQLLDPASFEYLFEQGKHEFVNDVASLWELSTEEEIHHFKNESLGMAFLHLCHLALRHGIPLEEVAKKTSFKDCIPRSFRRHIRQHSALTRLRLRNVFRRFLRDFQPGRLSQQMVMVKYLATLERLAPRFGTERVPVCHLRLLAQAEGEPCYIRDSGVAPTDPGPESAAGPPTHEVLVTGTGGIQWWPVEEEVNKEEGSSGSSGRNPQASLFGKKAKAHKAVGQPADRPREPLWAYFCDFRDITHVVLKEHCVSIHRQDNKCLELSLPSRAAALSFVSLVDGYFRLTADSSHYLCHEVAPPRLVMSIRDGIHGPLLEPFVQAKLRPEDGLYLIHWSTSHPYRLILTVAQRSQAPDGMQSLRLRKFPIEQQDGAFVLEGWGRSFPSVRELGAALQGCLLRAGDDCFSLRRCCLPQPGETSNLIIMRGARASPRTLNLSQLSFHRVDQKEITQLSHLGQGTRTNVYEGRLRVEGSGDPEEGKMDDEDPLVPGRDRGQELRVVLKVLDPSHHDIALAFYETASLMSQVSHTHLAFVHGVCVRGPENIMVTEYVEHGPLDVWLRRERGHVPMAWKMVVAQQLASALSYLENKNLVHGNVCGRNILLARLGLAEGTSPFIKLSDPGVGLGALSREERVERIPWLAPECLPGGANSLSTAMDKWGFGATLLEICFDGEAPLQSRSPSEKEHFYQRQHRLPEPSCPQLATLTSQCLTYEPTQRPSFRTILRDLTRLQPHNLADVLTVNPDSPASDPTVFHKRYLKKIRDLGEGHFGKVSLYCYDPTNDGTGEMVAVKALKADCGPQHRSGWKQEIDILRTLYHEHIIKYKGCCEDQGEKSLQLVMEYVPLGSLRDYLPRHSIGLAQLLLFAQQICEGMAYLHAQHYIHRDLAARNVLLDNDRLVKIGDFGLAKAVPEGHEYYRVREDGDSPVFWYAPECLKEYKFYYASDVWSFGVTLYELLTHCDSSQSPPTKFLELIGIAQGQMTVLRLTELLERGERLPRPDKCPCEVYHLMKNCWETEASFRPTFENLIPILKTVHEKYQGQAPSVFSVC
UniProt P07947, whole entry, looked up: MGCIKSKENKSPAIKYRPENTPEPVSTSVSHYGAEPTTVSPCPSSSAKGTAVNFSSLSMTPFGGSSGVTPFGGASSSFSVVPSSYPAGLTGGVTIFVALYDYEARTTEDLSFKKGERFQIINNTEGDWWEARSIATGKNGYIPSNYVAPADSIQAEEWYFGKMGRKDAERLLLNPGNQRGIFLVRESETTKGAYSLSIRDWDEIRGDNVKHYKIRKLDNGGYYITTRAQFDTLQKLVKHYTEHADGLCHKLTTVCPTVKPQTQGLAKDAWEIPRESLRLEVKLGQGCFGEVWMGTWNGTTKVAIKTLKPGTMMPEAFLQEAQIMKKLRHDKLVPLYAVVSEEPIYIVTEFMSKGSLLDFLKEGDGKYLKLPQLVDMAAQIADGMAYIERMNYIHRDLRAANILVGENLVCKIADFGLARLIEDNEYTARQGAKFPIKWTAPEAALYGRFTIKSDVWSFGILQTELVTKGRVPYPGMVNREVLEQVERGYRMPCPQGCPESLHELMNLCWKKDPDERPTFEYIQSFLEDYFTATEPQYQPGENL
UniProt P00519, whole entry: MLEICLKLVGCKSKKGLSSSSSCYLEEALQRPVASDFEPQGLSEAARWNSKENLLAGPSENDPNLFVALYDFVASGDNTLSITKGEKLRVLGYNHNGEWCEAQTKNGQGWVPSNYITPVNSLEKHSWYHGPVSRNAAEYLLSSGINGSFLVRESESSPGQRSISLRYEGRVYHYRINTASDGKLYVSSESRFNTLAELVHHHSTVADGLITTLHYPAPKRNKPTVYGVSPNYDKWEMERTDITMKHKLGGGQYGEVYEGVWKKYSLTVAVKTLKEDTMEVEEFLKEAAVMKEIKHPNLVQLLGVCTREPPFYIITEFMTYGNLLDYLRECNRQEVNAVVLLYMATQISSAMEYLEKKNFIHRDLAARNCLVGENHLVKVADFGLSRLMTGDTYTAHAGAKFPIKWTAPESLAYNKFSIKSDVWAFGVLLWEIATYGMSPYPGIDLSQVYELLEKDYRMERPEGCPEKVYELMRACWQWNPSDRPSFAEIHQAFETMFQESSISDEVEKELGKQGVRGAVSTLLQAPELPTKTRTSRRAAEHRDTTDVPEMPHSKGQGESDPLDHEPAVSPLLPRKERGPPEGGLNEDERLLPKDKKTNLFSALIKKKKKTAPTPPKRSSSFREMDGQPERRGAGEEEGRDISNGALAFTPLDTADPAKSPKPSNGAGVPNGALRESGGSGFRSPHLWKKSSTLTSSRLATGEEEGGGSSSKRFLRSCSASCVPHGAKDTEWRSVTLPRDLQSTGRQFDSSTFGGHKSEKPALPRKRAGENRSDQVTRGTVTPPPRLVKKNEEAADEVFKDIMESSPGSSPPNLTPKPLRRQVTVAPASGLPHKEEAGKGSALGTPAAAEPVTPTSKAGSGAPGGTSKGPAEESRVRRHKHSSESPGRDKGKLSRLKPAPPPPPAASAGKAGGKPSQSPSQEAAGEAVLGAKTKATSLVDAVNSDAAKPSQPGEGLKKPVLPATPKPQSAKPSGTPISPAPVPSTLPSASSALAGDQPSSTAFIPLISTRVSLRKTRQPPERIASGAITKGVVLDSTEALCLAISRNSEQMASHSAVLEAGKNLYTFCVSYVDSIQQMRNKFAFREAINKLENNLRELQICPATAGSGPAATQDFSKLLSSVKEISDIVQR

CCS(=O)(=O)c1ccc(Oc2cc(O[C@@H](C)CO)cc(C(=O)Nc3ccn(C)n3)c2)cn1 (10 µM)
inactive: kinase-Nluc reporter destabilization hit call (RET) 0 | kinase-Nluc reporter destabilization hit call [1] 0 | kinase-Nluc reporter destabilization hit call (RIOK1) 0 | kinase-Nluc reporter destabilization hit call (RIPK1) 0 | kinase-Nluc reporter destabilization hit call (RIPK2) 0 | kinase-Nluc reporter destabilization hit call (ROR2) 0 | kinase-Nluc reporter destabilization hit call (RPS6KA1) 0 | kinase-Nluc reporter destabilization hit call (SPHK1) 0 | kinase-Nluc reporter destabilization hit call (SRC) 0 | kinase-Nluc reporter destabilization hit call (STK24) 0 | kinase-Nluc reporter destabilization hit call (STK38) 0 | kinase-Nluc reporter destabilization hit call (SYK) 0 | kinase-Nluc reporter destabilization hit call (TEC) 0 | kinase-Nluc reporter destabilization hit call (TYK2) 0 | kinase-Nluc reporter destabilization hit call (ULK3) 0 | kinase-Nluc reporter destabilization hit call (YES1) 0 | kinase-Nluc reporter destabilization hit call (ZAK) 0 | kinase-Nluc reporter destabilization hit call (ZAP70) 0
0: number of time points (ABL1) | number of time points (AKT1)

O=C(NCc1cccc(O)c1)c1cc2cc(F)ccc2[nH]1 (10 µM)
0: number of time points (ABL1) | number of time points (AKT1)
inactive: kinase-Nluc reporter destabilization hit call (RET) 0 | kinase-Nluc reporter destabilization hit call [1] 0 | kinase-Nluc reporter destabilization hit call (RIOK1) 0 | kinase-Nluc reporter destabilization hit call (RIPK1) 0 | kinase-Nluc reporter destabilization hit call (RIPK2) 0 | kinase-Nluc reporter destabilization hit call (ROR2) 0 | kinase-Nluc reporter destabilization hit call (RPS6KA1) 0 | kinase-Nluc reporter destabilization hit call (SPHK1) 0 | kinase-Nluc reporter destabilization hit call (SRC) 0 | kinase-Nluc reporter destabilization hit call (STK24) 0 | kinase-Nluc reporter destabilization hit call (STK38) 0 | kinase-Nluc reporter destabilization hit call (SYK) 0 | kinase-Nluc reporter destabilization hit call (TEC) 0 | kinase-Nluc reporter destabilization hit call (TYK2) 0 | kinase-Nluc reporter destabilization hit call (ULK3) 0 | kinase-Nluc reporter destabilization hit call (YES1) 0 | kinase-Nluc reporter destabilization hit call (ZAK) 0 | kinase-Nluc reporter destabilization hit call (ZAP70) 0

O=C1c2c(O)cc(O)cc2O[C@H](c2cc(O)c(O)c(O)c2)[C@H]1O [Dihydromyricetin] (10 µM)
inactive: kinase-Nluc reporter destabilization hit call (RET) 0 | kinase-Nluc reporter destabilization hit call [1] 0 | kinase-Nluc reporter destabilization hit call (RIOK1) 0 | kinase-Nluc reporter destabilization hit call (RIPK1) 0 | kinase-Nluc reporter destabilization hit call (RIPK2) 0 | kinase-Nluc reporter destabilization hit call (ROR2) 0 | kinase-Nluc reporter destabilization hit call (RPS6KA1) 0 | kinase-Nluc reporter destabilization hit call (SPHK1) 0 | kinase-Nluc reporter destabilization hit call (SRC) 0 | kinase-Nluc reporter destabilization hit call (STK24) 0 | kinase-Nluc reporter destabilization hit call (STK38) 0 | kinase-Nluc reporter destabilization hit call (SYK) 0 | kinase-Nluc reporter destabilization hit call (TEC) 0 | kinase-Nluc reporter destabilization hit call (TYK2) 0 | kinase-Nluc reporter destabilization hit call (ULK3) 0 | kinase-Nluc reporter destabilization hit call (YES1) 0 | kinase-Nluc reporter destabilization hit call (ZAK) 0 | kinase-Nluc reporter destabilization hit call (ZAP70) 0
0: number of time points (ABL1) | number of time points (AKT1)

Cc1c(Br)c(Br)c2c3c1nc(N1CCNCC1)n3CCC2 [SEL120-34A (monohydrochloride)] (2.5 µM)
inactive: kinase-Nluc reporter destabilization hit call (RET) 0 | kinase-Nluc reporter destabilization hit call [1] 0 | kinase-Nluc reporter destabilization hit call (RIOK1) 0 | kinase-Nluc reporter destabilization hit call (RIPK1) 0 | kinase-Nluc reporter destabilization hit call (RIPK2) 0 | kinase-Nluc reporter destabilization hit call (ROR2) 0 | kinase-Nluc reporter destabilization hit call (RPS6KA1) 0 | kinase-Nluc reporter destabilization hit call (SPHK1) 0 | kinase-Nluc reporter destabilization hit call (SRC) 0 | kinase-Nluc reporter destabilization hit call (STK24) 0 | kinase-Nluc reporter destabilization hit call (STK38) 0 | kinase-Nluc reporter destabilization hit call (SYK) 0 | kinase-Nluc reporter destabilization hit call (TEC) 0 | kinase-Nluc reporter destabilization hit call (TYK2) 0 | kinase-Nluc reporter destabilization hit call (ULK3) 0 | kinase-Nluc reporter destabilization hit call (YES1) 0 | kinase-Nluc reporter destabilization hit call (ZAK) 0 | kinase-Nluc reporter destabilization hit call (ZAP70) 0
0: number of time points (ABL1) | number of time points (AKT1)

N#Cc1c[nH]c2ccc(-c3ccc(-c4c(O)cccc4O)cc3)cc12 (10 µM)
0: number of time points (ABL1) | number of time points (AKT1)
inactive: kinase-Nluc reporter destabilization hit call (RET) 0 | kinase-Nluc reporter destabilization hit call [1] 0 | kinase-Nluc reporter destabilization hit call (RIOK1) 0 | kinase-Nluc reporter destabilization hit call (RIPK1) 0 | kinase-Nluc reporter destabilization hit call (RIPK2) 0 | kinase-Nluc reporter destabilization hit call (ROR2) 0 | kinase-Nluc reporter destabilization hit call (RPS6KA1) 0 | kinase-Nluc reporter destabilization hit call (SPHK1) 0 | kinase-Nluc reporter destabilization hit call (SRC) 0 | kinase-Nluc reporter destabilization hit call (STK24) 0 | kinase-Nluc reporter destabilization hit call (STK38) 0 | kinase-Nluc reporter destabilization hit call (SYK) 0 | kinase-Nluc reporter destabilization hit call (TEC) 0 | kinase-Nluc reporter destabilization hit call (TYK2) 0 | kinase-Nluc reporter destabilization hit call (ULK3) 0 | kinase-Nluc reporter destabilization hit call (YES1) 0 | kinase-Nluc reporter destabilization hit call (ZAK) 0 | kinase-Nluc reporter destabilization hit call (ZAP70) 0

From the supplement of paper PMC12823440, “Inhibitors supercharge kinase turnover through native proteolytic circuits” (Nature, 2025)
